Measured values from PubChem BioAssay AID493014 (National Center for Advancing Translational Sciences (NCATS), 2011).
The campaign covered roughly 340,000 compounds. About 170 (0.05%) were called active. The inconclusive results got no clear call from the source; some entries with a clear call stand among them for comparison. Calls come from the whole dose curve; as a rule, active = well fitted inhibition curve with a large enough effect in the signal ratio, with a control signal flat (not every such curve was filed as active); inconclusive = small, poorly fitted or top-dose-only effect, or effect the other way, or a change in a side signal; inactive = flat fitted curve, though single readings scatter; the % refers to the signal ratio. Potencies of inconclusive entries are doubtful fits and often do not repeat.

Test: qHTS Assay to Find Inhibitors of Chronic Active B-Cell Receptor Signaling;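 for activity change, negative = inhibition: plate controls were basal doxycycline-induced cells for no effect and cells given 10 µM MG132 for full effect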
Conditions: ABC-DLBCL IkBa-CBG/CBR reporter, luminescence ratio (green luciferase fused to IkBa over red control in TMD8 lymphoma cells), 4 h
Procedure, shortened: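 TMD8 human ABC-DLBCL cells with doxycycline-inducible IκBα–green luciferase fusion and unfused red luciferase, in 0.5% FBS medium; compounds up to 46 uM, 4 h at 37C. Green/red luminescence ratio, filter-overlap corrected, fitted to concentration-response curves.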

[1] = activity change, negative = inhibition: at 46.1 µM (top of the series) unless noted
Potency is the fitted concentration of half-maximal effect.

## COc1ccc(-c2nn(-c3ccccc3)cc2C(=O)Nc2nccs2)cc1
[1]
  Potency: inconclusive: 3.66 µM [rising, full curve, poor fit]

## CC(=O)c1sc(N/N=C\c2ccc(N(C)C)cc2)nc1C
[1]
  activity change, negative = inhibition: inactive

## CCC1CCCCN1C(=O)COc1ccccc1NC(C)=O (centres undefined)
[1]
  Potency: inconclusive: 25.1 µM [falling, single point]

## CCN(CC)S(=O)(=O)c1cc(NC(=O)CNc2cccc(S(=O)(=O)N3CCCC3)c2)ccc1C
[1]
  activity change, negative = inhibition: inactive

## CCCCNC(=O)C(C)N(CCN(C)C)C(=O)CCCN1C(=O)NC(c2ccc([N+](=O)[O-])cc2)C(C(=O)OCc2ccccc2)=C1C (centres undefined)
[1]
  Potency: inconclusive: 23.1 µM [falling, partial curve, poor fit]

## O=C1CCCC2=C1Sc1ccccc1N2
[1]
  activity change, negative = inhibition: inconclusive: -6.77%

## Cn1nnc2c[n+](CC(=O)c3ccc(Cl)cc3)cc(Br)c21
[1]
  activity change, negative = inhibition: inconclusive: 11.1%

## Cc1cc(C)nc(SCc2n[nH]c(=S)n2C)n1
[1]
  activity change, negative = inhibition: inconclusive: 10.4%

## CNS(=O)(=O)c1cc(NC(=O)c2cnc(SC)n2-c2ccccc2)ccc1C
[1]
  activity change, negative = inhibition: inconclusive: -9.99%

## CCOc1cc(/C=N/NC(=O)c2cc(-c3ccccc3)nc3ccccc23)ccc1O
[1]
  activity change, negative = inhibition: inconclusive: -9.19%

## N#C/C(=C(/O)c1ccc(F)cc1)c1nc2ccccc2s1
[1]
  Potency: inconclusive: 0.631 µM [rising, partial curve, poor fit]

## O=[N+]([O-])c1ccccc1OCCCOc1cccc2cccnc12
[1]
  activity change, negative = inhibition: inconclusive: 1.09%

## COc1ccc(Cl)c2sc(N(CCN(C)C)C(=O)CCS(=O)(=O)c3ccc(C)cc3)nc12
[1]
  activity change, negative = inhibition: inactive

## CCc1nnc(N/N=C/c2c(Cl)cccc2Cl)n1N
[1]
  Potency: inconclusive: 28.2 µM [falling, single point]

## NS(=O)(=O)c1ccc(CCNC(=O)CSCC(=O)Nc2ccc(Cl)cc2)cc1
[1]
  activity change, negative = inhibition: inactive

## CC(C)CC(=O)NN(C)c1nc(-c2ccccc2)nnc1C(F)(F)F
[1]
  activity change, negative = inhibition: inconclusive: -1.17%

## COc1cc(/C=C/C(=O)OC2CC3CCC2(C)C3(C)C)ccc1O (centres undefined)
[1]
  activity change, negative = inhibition: inconclusive: -10.4%

## CC(=O)c1sc(NC(=O)CN2C(=O)C3CC=CCC3C2=O)nc1-c1ccccc1 (centres undefined)
[1]
  activity change, negative = inhibition: inconclusive: 0.191%

## Cc1ccc(S(=O)(=O)N(C)C)cc1NC(=O)/C=C/c1cccs1
[1]
  activity change, negative = inhibition: inconclusive: 1.05%

## O=C(O)/C=C/C(=O)NNC(=O)c1ccccc1Br
[1]
  Potency: inconclusive: 28.2 µM [falling, partial curve]

## Fc1cccc(F)c1/C=N/NC(=S)Nc1cccnc1
[1]
  Potency: inconclusive: 35.5 µM [falling, single point]

## O=C(Nc1ccc(Br)cc1)C(c1ccccc1)c1ccccc1
[1]
  activity change, negative = inhibition: inconclusive: 14.7%

## COC(=O)c1sc(N)c(C(=O)OC)c1COC(=O)C1CC(=O)N(Cc2ccco2)C1 (centres undefined)
[1]
  activity change, negative = inhibition: inconclusive: -2.43%

## FC(F)(F)c1nnc(Nc2ccc(Cl)cc2)s1
[1]
  activity change, negative = inhibition: inactive

## O=C(N/N=C/c1ccco1)c1ccc(N2CCCC2=O)cc1
[1]
  activity change, negative = inhibition: inconclusive: -37.5%

## COc1ccc(C(=O)NCc2nnc(SCC(=O)Nc3nc4ccc(C)cc4s3)o2)cc1OC
[1]
  activity change, negative = inhibition: inconclusive: 5.17%

## COc1ccc2nc(SCC(=O)N(C)C3CCCCC3)c(C#N)cc2c1
[1]
  activity change, negative = inhibition: inconclusive: -13.3%

## Cc1occc1C(=O)NN=C1C2CC3CC(C2)CC1C3
[1]
  Potency: inconclusive: 4.61 µM [falling, single point]

## CC(C)C1CC(CCNCc2ccc3c(c2)OCO3)(c2ccccc2)CCO1 (centres undefined)
[1]
  activity change, negative = inhibition: inconclusive: -6.89%

## COc1cc(N=c2ssnc2Cl)c(OC)cc1Cl
[1]
  activity change, negative = inhibition: inconclusive: -0.83%
At 46.1 µM (top of the series)
  activity change, negative = inhibition: inactive: -3.1%

## COc1ccc(OCc2cc(-c3ccc(Cl)cc3)no2)cc1
[1]
  activity change, negative = inhibition: inconclusive: 10.8%

## N=c1n(CCN2CCOCC2)c2ccccc2n1Cc1ccccc1Br
[1]
  activity change, negative = inhibition: inconclusive: -11.7%

## CCOCCCNC(=O)c1c(C)c(C(=O)OCC)n(C)c1C
[1]
  activity change, negative = inhibition: inconclusive: -2.5%

## O=C(C1CCCCC1)N(Cc1cccnc1)c1nc2ccc(Cl)cc2s1
[1]
  activity change, negative = inhibition: inactive

## Cc1cc(NC(=O)COC(=O)c2c(Cl)cccc2Cl)no1
[1]
  activity change, negative = inhibition: inactive

## Cc1cc(C)c2cc3c(ccn3C3OC[C@H](O)[C@H](O)[C@H]3O)cc2n1 (some centres undefined)
[1]
  activity change, negative = inhibition: inconclusive: 4.64%

## COc1ccc(-n2nnc3c(SCc4ccccc4)ncnc32)cc1
[1]
  activity change, negative = inhibition: inconclusive: -0.97%

## Cc1ccccc1Nc1nc(N)nc(COC(=O)c2cccc(S(=O)(=O)N(C)c3ccccc3)c2)n1
[1]
  Potency: inconclusive: 20.6 µM [falling, partial curve, poor fit]

## COCc1cc(=O)c2ccccc2o1
[1]
  activity change, negative = inhibition: inconclusive: 1.08%

## CCCCn1c(SCC(=O)NCc2ccco2)nc2c(sc3ccccc32)c1=O
[1]
  activity change, negative = inhibition: inactive

## CCc1ccccc1NC(=O)CSc1nc2ccccc2n1CC(=O)N(C)C
[1]
  activity change, negative = inhibition: inactive

## Cc1ccccc1NC(=S)N1CCCN(Cc2ccc(F)cc2)C1
[1]
  Potency: inconclusive: 3.16 µM [falling, full curve]

## CCCOc1ccc(CNC(=O)Cn2ncc3ccccc32)cc1
[1]
  activity change, negative = inhibition: inconclusive: -12.6%

## CCn1c(SCc2ccccc2)nc2c1c(=O)[nH]c(=O)n2C
[1]
  activity change, negative = inhibition: inactive

## c1ccc2[nH]c(CN3CCCCC3)nc2c1
[1]
  activity change, negative = inhibition: inconclusive: 0.524%

## O=C(CN1CCCCC1)c1c[nH]c2ccccc12
[1]
  Potency: inconclusive: 35.5 µM [falling, partial curve]

## Cc1ccc(Cl)cc1N1CCN(S(C)(=O)=O)CC1
[1]
  activity change, negative = inhibition: inconclusive: 0.91%

## CC(C)c1ccc(-n2cnn(-c3ncccc3[N+](=O)[O-])c2=O)cc1
[1]
  activity change, negative = inhibition: inconclusive: -21.8%

## COc1cc2c(cc1OC)C(c1ccc3c(c1)OCO3)CC(=O)N2 (centres undefined)
[1]
  Potency: inconclusive: 29.1 µM [falling, single point]

## Cc1cc(C(=O)CSc2nnnn2C)c(C)n1-c1ccc2c(c1)OCCO2
[1]
  activity change, negative = inhibition: inconclusive: 15%

## O=c1oc2ccc(Cl)cc2cc1-c1ccccc1
[1]
  activity change, negative = inhibition: inconclusive: 3%

## CCCCNC(=O)CSc1nc2ccc(N3CCOCC3)cc2c(=O)n1CCc1ccccc1
[1]
  activity change, negative = inhibition: inconclusive: -5.69%

## COc1ccc2c(=O)c3c(=O)n(-c4ccccc4)c(-c4ccc(C)cc4)nc3oc2c1
[1]
  activity change, negative = inhibition: inconclusive: 357%
